Data: patent US7012144B2, “Quinolone carboxylic acid derivatives” (Korea Research Institute of Chemical Technology, priority 2001, dated 2006)

Tested on: calf thymus topoisomerase II versus gyrase of E. coli
Assay: Selectivity index (IC100 Topo II versus IC100 Gyrase)
Assay type: biochemical
Conditions: selectivity index calculated from IC100, Topo II and IC100, Gyrase

Structure (SMILES)	S.I.
O=C(O)c1cn(C2CC2)c2cc(N3CCNCC3)c(F)cc2c1=O [Ciprofloxacin, 1-cyclopropyl-6-fluoro-7-(piperazin-1-yl)-4-oxoquinoline-3-carboxylic acid, reference compound]	1,000
COc1c(N2CCC(CN)(c3ccccn3)C2)c(F)cc2c(=O)c(C(=O)O)cn(C3CC3)c12 (stereo not shown) [Compound 3, 1-cyclopropyl-6-fluoro-8-methoxy-7-[{3-aminomethyl-3-(pyridin-2-yl)pyrrolidin}-1-yl]-4-oxo-1,4-dihydroquinolin-3-carboxylic acid]	5,000
COc1c(N2CCC(N)(c3ccncc3)C2)c(F)cc2c(=O)c(C(=O)O)cn(C3CC3)c12 (stereo not shown) [Compound 11, 1-cyclopropyl-6-fluoro-8-methoxy-7-[{3-amino-3-(pyridin-4-yl)pyrrolidin}-1-yl]-4-oxo-1,4-dihydroquinolin-3-carboxylic acid]	2,500
CC1CN(c2c(F)c(N)c3c(=O)c(C(=O)O)cn(C4CC4)c3c2F)CC(C)N1 (stereo not shown) [Sparfloxacin, 1-cyclopropyl-5-amino-6,8-difluoro-7-(3,5-dimethylpiperazin-1-yl)-4-oxoquinoline-3-carboxylic acid, reference compound]	500
